Where cells or extracts were used, other partners may take part. Negatives hold for the conditions tested. The exact form of at least one protein or probe is not confirmed.
Experiments:
[1] = biological target: HA-EBB1 (EARLY BUD-BREAK 1) (UniProt F8QPW1); assay: EMSA; details: poly(dI:dC), BSA, SVL EMSA: 10 uL protoplast extract, EMSA buffer (composition not given), protein in a lysate after overexpression, protein details: HA, label: biotin
[2] = biological target: HA-EBB3 (EARLY BUD-BREAK 3) (UniProt B9I411); assay: EMSA; details: poly(dI:dC), BSA, SVL EMSA: 10 uL protoplast extract, EMSA buffer (composition not given), protein in a lysate after overexpression, protein details: HA, label: biotin

Sequence | binding result [1] | binding result [2]
TTAGCAAAATGACGACTGTTTTACTCC (double strand) [SVL Prom F1m2] | no binding | 
TTAGCAAAATGCAGCATGTTTTACTCC (double strand) [SVL Prom F1m1] | no binding | 
TTAGCAAAATTTCTTCTGTTTTACTCC (double strand) [SVL Prom F1m3] | no binding | 
TTAGCAAAATGCCGCCTGTTTTACTCC (double strand) [SVL Prom F1 (27 bp, GCC-box)] | binds | no binding

— publication PMC7893051
